Patent publication US20130034493A1

Tests used:
recombinant BMP1 (rBMP1) [1] = experiment: ELISA, detection with FLAG (M2) antibody (FIG. 19A)
recombinant BMP9 (rBMP9) [2] = experiment: as above
recombinant BMP1 (rBMP1) [3] = experiment: ELISA, detection with FLAG (M2) antibody (FIG. 7A)
recombinant BMP9 (rBMP9) [4] = experiment: ELISA, detection with FLAG (M2) antibody (FIG. 7A)

B1: mouse recombinant Olfml3-FLAG tagged protein (rOlfml3-FLAG) (protein, not shown: small tags and cut ends)
chain: QQHHLVEYMERRLAALEERLAQCQDQSSRHAAELRDFKNKMLPLLEVAEKERETLRTEADSISGRVDRLEREVDYLETQNPALPCVELDEKVTGGPGAKGKGRRNEKYDMVTDCSYTVAQVRSMKILKRFGGSVGLWTKDPLGPAEKIYVLDGTQNDTAFVFPRLRDFTLAMAARKASRIRVPFPWVGTGQLVYGGFLYYARRPPGGPGGGGELENTLQLIKFHLANRTVVDSSVFPAESLIPPYGLTADTYIDLAADEEGLWAVYATRDDDRHLCLAKLDPQTLDTEQQWDTPCPRENAEAAFVICGTLYVVYNTRPASRARIQCSFDASGTLAPERAALSYFPRRYGAHASLRYNPRERQLYAWDDGYQIVYKLEMKKKEEEV
- binding (recombinant BMP1 (rBMP1) [1]): no binding (tested: 0.1-1 µg/mL)
- binding (recombinant BMP9 (rBMP9) [2]): no binding (tested: 0.1-1 µg/mL)
- binding (recombinant BMP1 (rBMP1) [3]): no binding (tested: 0.1-1 ng/µl)
- binding (recombinant BMP9 (rBMP9) [4]): no binding (tested: 0.1-1 ng/µl)

No constants are given. Whether binding was seen depends on the method and setting. Where a sequence is shown, tags or fusion partners need not be part of it.
